Experimental data as given in patent US20180057547A1, “DIAGNOSTIC AND THERAPEUTIC EPITOPE, AND TRANSGENIC PLANT” (OXFORD UNIVERSITY INNOVATION LIMITED, priority 1999, published 2018).
Some results were stated once for a whole list of compounds, not compound by compound.

Tested on: PBMC from coeliac subjects
Assay: IFNγ ELISPOT with PBMC of coeliac disease subjects after bread/gluten challenge
Assay type: cell-based, human
Conditions: 57-73 A-gliadin epitope substituted at position 65, synthetic peptides 50 μg/ml, 3 coeliac subjects, 6 days after commencing gluten challenge; listed as arginine

## N=C(N)NCCC[C@H](N)C(=O)O [R65]
  Mean response as % of the response to the immunodominant epitope: less than 10%
